In PubChem BioAssay AID493014 (National Center for Advancing Translational Sciences (NCATS), 2011) one finds AC50 data, which are given here for 63 compounds.

This experiment is described as follows: qHTS Assay to Find Inhibitors of Chronic Active B-Cell Receptor Signaling. The settings on record: ABC-DLBCL IkBa-CBG/CBR reporter, luminescence ratio (green luciferase fused to IkBa over red control in TMD8 lymphoma cells), 4 h. The gist of the method:
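TMD8 ABC-DLBCL cells carrying doxycycline-inducible green luciferase fused to IkappaBalpha plus unfused red luciferase were exposed to compounds (up to 46 uM) for 4 hrs at 37C. Activity came from the overlap-corrected green/red luminescence ratio.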
A general note: Quantitative high-throughput screening tests each substance at several concentrations.

[1] abbreviates: measured here: CBR red luminescence, cell number.
[2] abbreviates: measured here: IkBa-CBG green luminescence.

The other results are listed elsewhere or left out. These are further read-outs of the screen, such as a control signal, another cell line or another target. No call is given for them. Compounds called inactive in the main read-out are mostly missing here. The note in brackets gives the kind of curve behind each potency; many fits are weak.

As usually defined, the AC50 is the concentration at which the activity in the assay is half-maximal. As for `CCC(C)[C@H](N)c1cn([C@@H](Cc2cc3ccccc3[nH]2)C(=O)N2CCNCC2)nn1` (stereo partly drawn), under setting [1], the AC50 was 5.62 µM [falling, single point].
On to `CC(OC(=O)c1cc(=O)[nH]c2ccccc12)C(=O)N1C(C)CCCC1C` (stereo not drawn), for which, under setting [1], the AC50 is 29.1 µM [rising, single point].
The same measure, in the same setting: for `CCC1=NN(C(=O)COc2ccccc2)C(O)(c2ccc(Br)cc2)C1` (stereo not drawn) the value was 15.8 µM [falling, partial curve]; for `c1ccc(-n2c(-c3ccncc3)nnc2N2CCOCC2)cc1`, 5.62 µM [falling, single point]; for `CN1C=CC=C/C1=C1\SC(=S)N(C2CCCCC2)C1=O`, 1.58 µM [rising, partial curve, poor fit].
On the same count and under the same terms, with `O=S(=O)(c1ccccc1)N(F)S(=O)(=O)c1ccccc1` the figure was 3.66 µM [rising, full curve].
Regarding `CSc1ncc(CN2CCc3c([nH]c4ccccc34)C2c2cccc(O)c2)cn1` (stereo not drawn), the AC50 under setting [1] is 20 µM [falling, partial curve, poor fit] and the AC50 under setting [2] was 20 µM [rising, partial curve, poor fit].
For `c1csc(-c2nc3ccccc3[nH]2)c1`, under setting [1], the AC50 is 2.91 µM [falling, full curve].
The same measure, in the same setting: with `Cn1c(C(=O)c2ccncc2)cc2ccccc21` the figure was 20 µM [rising, single point]; with `CCOc1ccc(S(=O)(=O)Nc2cccc(C(=O)N3CCN(c4cccc(OC)c4)CC3)c2)cc1`, 7.31 µM [rising, partial curve, poor fit]; with `CN1CC(=O)N(CC(=O)Nc2ccc3c(c2)CCC3)C1=O`, 11.2 µM [falling, partial curve, poor fit].
On the same count and under the same terms, with `COc1ccc(NS(=O)(=O)c2cc(NC(=O)c3ccc(F)cc3)ccc2OC)cc1` the figure was 20.6 µM [falling, single point]; with `CCOC(=O)c1c(NC(=O)C2c3ccccc3Oc3ccccc32)sc(C(N)=O)c1C`, 6.51 µM [falling, single point].
For the compound `O=C(c1cc(-c2cccc(Cl)c2)on1)N1CCN(c2ccccc2)CC1`, the AC50 under setting [1] was 0.398 µM [falling, full curve, poor fit].
The same measure, in the same setting: with `COc1ccc(Br)cc1/C=N/n1c(COc2ccccc2)n[nH]c1=S` the figure was 35.5 µM [rising, single point].
The same measure, in the same setting: for `CCCCC(=O)Nc1ccc(NC(=O)c2cnccn2)cn1` the value was 3.98 µM [falling, partial curve, poor fit].
Turning to `O=C(/C=C/c1ccc(Cl)c([N+](=O)[O-])c1)Nc1cccc(NC(=O)c2ccco2)c1`, the AC50 under setting [1] is 1.84 µM [falling, full curve].
The same measure, in the same setting: with `CCCCOC(=O)/C=C/c1c(C)[nH]c(=O)[nH]c1=O` the figure was 29.1 µM [rising, single point]; with `CC(=O)c1ccc(N(C(=O)c2csnn2)C(C(=O)NC2CCCC2)c2ccccc2)cc1` (stereo not drawn), 0.501 µM [rising, full curve, poor fit]; with `Cc1ccccc1C(=O)NC(=S)Nc1ccc(N2CCOCC2)cc1`, 7.08 µM [falling, partial curve, poor fit].
Still for that read-out and setting: with `CN(C)CCCCNCCCNC(=O)/C=N\O` the figure was 0.0259 µM [falling, full curve, poor fit]; with `C=C1CCC2C(C)(C)[C@@H](O)CC[C@@]2(C)[C@@H]1COc1ccc2ccc(=O)oc2c1` (stereo partly drawn), 3.55 µM [falling, partial curve].
Same read-out and setting: for `COc1ccc(CN(C)C(=O)c2ccc(NS(=O)(=O)c3ccc4[nH]c(=O)[nH]c4c3)cc2)c(OC)c1OC` the value was 29.1 µM [rising, single point].
With `COC(=O)c1ccc(/C=N/NC(=O)C(=O)N2CCCCCC2)cc1`, the AC50 under setting [1] is 10 µM [falling, partial curve, poor fit].
In the case of `O=c1c2c3nc4ccccc4nc3n(/N=C/c3ccco3)c2ncn1CCC1=CCCCC1`, under setting [1], the AC50 was 7.94 µM [falling, partial curve, poor fit].
As for `C=CCN(c1ccccc1)S(=O)(=O)c1ccc2c(c1)NC(=O)C(C)S2` (stereo not drawn), the AC50 under setting [1] was 35.5 µM [falling, single point] and the AC50 under setting [2] was 14.1 µM [rising, partial curve, poor fit].
For the compound `COc1ccc(C2CC(C(F)(F)F)n3ncc(C(=O)NCc4cccnc4)c3N2)cc1OC` (stereo not drawn), the AC50 under setting [1] was 6.51 µM [falling, single point].
Same read-out and setting: for `CCC(=O)C1=C(c2ccc(Cl)cc2)N(C(=O)CC)n2c(C)nnc2S1` the value was 7.08 µM [falling, full curve]; for `COc1ccc(/C=C/C(=O)OCC(=O)N2CC(=O)Nc3ccccc32)cc1`, 25.9 µM [rising, single point].
Still for that read-out and setting: with `Cc1ccc(NC(=S)NC(=O)C2CCCC2)cc1C` the figure was 35.5 µM [rising, single point].
Take `CCC(=O)N1CCc2cc(S(=O)(=O)NC(Cc3ccccc3)C(=O)Nc3nccs3)ccc21` (stereo not drawn): under setting [1], the AC50 was 25.9 µM [rising, single point].
The same measure, in the same setting: for `COCCN1CCn2c(nc3cc(NC(C)=O)ccc32)C1` the value was 35.5 µM [rising, single point].
With `Fc1ccc2c(c1)C(c1ccc(N3CCOCC3)cc1)=NNC(c1cccs1)=N2`, under setting [2], the AC50 was 13 µM [falling, partial curve, poor fit].
`Cc1cc(C(F)(F)F)n2ncc(-c3ccccc3)c2n1`: the AC50 under setting [1] was 10.3 µM [rising, partial curve, poor fit].
On the same count and under the same terms, for `Cc1cc(SCC(=O)c2cc(C)n(C)c2C)nc2ccccc12` the value was 9.2 µM [falling, partial curve, poor fit]; for `NC(=O)NC(CC(=O)NNC(=O)c1ccccn1)c1ccccc1Cl` (stereo not drawn), 2.91 µM [rising, single point].
On the same count and under the same terms, with `COc1ccc(C(=O)Nc2ccc3c(c2)OCCO3)cc1` the figure was 16.4 µM [falling, partial curve]; with `COc1cccc(C2/C(=C(/O)c3ccc4c(c3)OCO4)C(=O)C(=O)N2CCN2CCOCC2)c1` (stereo not drawn), 20 µM [falling, single point].
In the case of `COc1ccc(CN2CN(C3CCCC3)CSC2=S)cc1`, the AC50 under setting [2] was 35.5 µM [falling, single point].
Regarding `Cc1cccnc1NC(=S)NC(=O)/C=C/c1ccco1`, the AC50 under setting [1] is 3.26 µM [falling, partial curve].
Regarding `CCOc1ccc(NC(=O)c2cccc3c2C(=O)N(CC2CCCO2)C3)cc1` (stereo not drawn), under setting [1], the AC50 was 2 µM [rising, full curve, poor fit].
The same measure, in the same setting: for `CCOC(=O)/C(C#N)=C/Nc1ccsc1C(C)=O` the value was 8.91 µM [rising, partial curve, poor fit]; for `Cc1nc2ccccn2c1C(=O)NN`, 2.31 µM [rising, full curve, poor fit]; for `CC(=O)N/C(=C\c1ccccc1)C(=O)OC(C)C(=O)c1ccccc1` (stereo not drawn), 20.6 µM [rising, partial curve].
On to `N/C(=N\N=C\c1cccc(O)c1)c1nonc1N`, for which the AC50 under setting [1] is 10 µM [falling, partial curve].
Still for that read-out and setting: with `CC1(C)CC(=O)c2sc(NC(=O)c3ccccc3)nc2C1` the figure was 2.24 µM [falling, full curve, poor fit]; with `COC(=O)C1=C(C)NC(C)=C(C(=O)OCCN(C)Cc2ccccc2)C1c1cccc([N+](=O)[O-])c1` (stereo not drawn), 1.03 µM [rising, partial curve, poor fit].
Take `CC(C)NC(=O)c1onc(CSc2ccccc2F)c1C(=O)O`: the AC50 under setting [1] was 11.2 µM [falling, partial curve].
`N#CCC(=O)N/N=C/c1cn(Cc2ccc3ccccc3c2)c2ccccc12`: the AC50 under setting [1] is 0.316 µM [rising, partial curve, poor fit].
Turning to `O=C(NN=C1CCCCCC1)C(=O)Nc1cccc(Br)c1`, the AC50 under setting [1] is 18.4 µM [falling, single point].
In the case of `Cc1nc2ncccn2c1-c1csc(Nc2ccc(N(C)C)cc2)n1`, the AC50 under setting [1] was 3.55 µM [rising, partial curve] and the AC50 under setting [2] is 8.91 µM [falling, partial curve].
`CCCCNc1ncnc2c1cnn2-c1ccccc1`: the AC50 under setting [1] was 10 µM [falling, partial curve].
On the same count and under the same terms, with `COc1ccc(C(=O)N2CCCC(Nc3ccc(F)c(F)c3)C2)c(OC)n1` (stereo not drawn) the figure was 0.316 µM [rising, full curve, poor fit]; with `Cc1ccc(Cl)cc1NC(=O)COC(=O)C1CCCCC1`, 29.1 µM [rising, single point].
On the same count and under the same terms, for `OCC1(CO)COC(/C=C/c2ccccc2)=N1` the value was 35.5 µM [falling, single point].
Same read-out and setting: with `Cc1c(Br)c(C(=O)N2CCc3ccccc32)nn1C` the figure was 2.59 µM [rising, full curve, poor fit].
In the case of `CC(=O)Nc1sc(NC(=O)c2ccc(C)cc2)nc1-c1cccs1`, the AC50 is 2.59 µM [falling, full curve] under setting [1] and 3.26 µM [rising, full curve, poor fit] under setting [2].
Consider `COCc1ccc(CN2CCCC(C(=O)Nc3ccccc3-c3ccc(OC)cc3)C2)o1` (stereo not drawn), for which the AC50 under setting [1] is 14.1 µM [falling, partial curve, poor fit].
Regarding `O=C(CCc1ccccc1)NNC(=O)c1ccc(Br)cc1`, the concentration at half-maximal activity (AC50) under setting [1] was 22.4 µM [rising, partial curve, poor fit].
Same read-out and setting: for `Cc1ccc(S(=O)(=O)N(C)c2ccc(OCC(=O)Nc3cccc(-n4cnnn4)c3C)cc2)cc1` the value was 22.4 µM [rising, single point].
The same measure, in the same setting: with `COc1ccc(NS(=O)(=O)c2ccc3c(c2)Cc2ccccc2-3)cn1` the figure was 14.1 µM [falling, single point].
`Cc1cc(C(=O)CN2c3cccc4cccc(c34)S2(=O)=O)c(C)n1C`: the half-maximal activity concentration (AC50) is 29.1 µM [rising, single point] under setting [1] and 20.6 µM [falling, single point] under setting [2].
With `Cc1ccc(C)c(N2CCN(S(=O)(=O)CC34CCC(CC3=O)C4(C)C)CC2)c1` (stereo not drawn), under setting [1], the AC50 is 35.5 µM [rising, single point].
